Laboratory results reported in the supplement of paper PMC12819154, “High-throughput peptide-centric local stability assay extends protein–ligand identification to membrane proteins, tissues and bacteria” (Nature Structural & Molecular Biology, 2025).
The other results are listed elsewhere or left out. Small differences around the control level are noise.

By UniProt entry, the sequences of proteins in these tests, tags left out. Where a name states a change or a piece, a line headed by the entry shows the natural chain unless it says otherwise.
UniProt Q8BYZ1: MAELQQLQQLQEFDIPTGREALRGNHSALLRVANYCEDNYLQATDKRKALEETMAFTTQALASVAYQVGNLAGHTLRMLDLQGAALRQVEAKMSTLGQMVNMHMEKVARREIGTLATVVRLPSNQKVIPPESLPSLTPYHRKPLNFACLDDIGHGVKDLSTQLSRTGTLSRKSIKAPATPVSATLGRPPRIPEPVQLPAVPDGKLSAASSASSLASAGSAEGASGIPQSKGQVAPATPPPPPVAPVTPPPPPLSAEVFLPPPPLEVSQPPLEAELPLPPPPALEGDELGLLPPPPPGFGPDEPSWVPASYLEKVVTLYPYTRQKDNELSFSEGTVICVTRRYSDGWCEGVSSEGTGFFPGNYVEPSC
UniProt Q8BVW0: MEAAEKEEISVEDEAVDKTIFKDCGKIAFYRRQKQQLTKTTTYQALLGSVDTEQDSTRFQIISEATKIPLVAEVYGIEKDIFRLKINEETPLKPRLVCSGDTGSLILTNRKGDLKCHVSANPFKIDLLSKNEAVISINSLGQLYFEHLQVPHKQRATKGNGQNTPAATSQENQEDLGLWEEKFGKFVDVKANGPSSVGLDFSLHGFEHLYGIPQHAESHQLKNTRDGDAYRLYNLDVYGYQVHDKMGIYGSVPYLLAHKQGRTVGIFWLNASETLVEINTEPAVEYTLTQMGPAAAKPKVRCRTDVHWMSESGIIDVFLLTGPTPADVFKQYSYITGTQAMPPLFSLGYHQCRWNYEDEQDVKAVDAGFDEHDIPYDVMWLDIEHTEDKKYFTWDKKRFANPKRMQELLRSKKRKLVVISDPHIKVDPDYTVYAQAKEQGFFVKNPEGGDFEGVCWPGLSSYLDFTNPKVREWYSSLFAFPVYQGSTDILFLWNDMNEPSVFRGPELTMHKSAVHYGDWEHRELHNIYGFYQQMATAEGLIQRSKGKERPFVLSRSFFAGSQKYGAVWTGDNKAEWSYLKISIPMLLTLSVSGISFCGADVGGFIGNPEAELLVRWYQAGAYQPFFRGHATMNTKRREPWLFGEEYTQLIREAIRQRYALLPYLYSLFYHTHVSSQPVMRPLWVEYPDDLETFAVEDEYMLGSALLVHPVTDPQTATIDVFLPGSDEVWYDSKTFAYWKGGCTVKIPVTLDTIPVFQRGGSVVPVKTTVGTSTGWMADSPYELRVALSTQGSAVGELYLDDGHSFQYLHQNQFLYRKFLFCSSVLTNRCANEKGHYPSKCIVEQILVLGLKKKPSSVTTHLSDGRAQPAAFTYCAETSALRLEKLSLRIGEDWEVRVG
UniProt Q8C3X4: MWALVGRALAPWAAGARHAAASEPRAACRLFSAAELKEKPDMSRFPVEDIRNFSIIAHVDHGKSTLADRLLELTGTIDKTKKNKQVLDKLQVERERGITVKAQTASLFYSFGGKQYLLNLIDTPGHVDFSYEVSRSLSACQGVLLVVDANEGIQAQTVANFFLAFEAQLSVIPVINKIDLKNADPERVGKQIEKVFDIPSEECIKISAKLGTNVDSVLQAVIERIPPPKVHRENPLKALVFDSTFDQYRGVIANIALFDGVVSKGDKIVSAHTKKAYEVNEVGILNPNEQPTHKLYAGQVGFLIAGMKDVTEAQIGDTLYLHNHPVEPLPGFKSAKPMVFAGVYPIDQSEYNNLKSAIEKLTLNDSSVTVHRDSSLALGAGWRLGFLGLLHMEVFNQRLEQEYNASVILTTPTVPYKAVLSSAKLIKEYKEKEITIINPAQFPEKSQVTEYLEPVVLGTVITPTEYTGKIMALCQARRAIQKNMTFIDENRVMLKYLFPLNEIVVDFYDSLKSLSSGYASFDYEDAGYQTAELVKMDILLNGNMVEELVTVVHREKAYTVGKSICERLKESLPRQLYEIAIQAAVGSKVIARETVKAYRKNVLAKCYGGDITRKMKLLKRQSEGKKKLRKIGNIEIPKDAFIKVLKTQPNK
UniProt Q8C1B7: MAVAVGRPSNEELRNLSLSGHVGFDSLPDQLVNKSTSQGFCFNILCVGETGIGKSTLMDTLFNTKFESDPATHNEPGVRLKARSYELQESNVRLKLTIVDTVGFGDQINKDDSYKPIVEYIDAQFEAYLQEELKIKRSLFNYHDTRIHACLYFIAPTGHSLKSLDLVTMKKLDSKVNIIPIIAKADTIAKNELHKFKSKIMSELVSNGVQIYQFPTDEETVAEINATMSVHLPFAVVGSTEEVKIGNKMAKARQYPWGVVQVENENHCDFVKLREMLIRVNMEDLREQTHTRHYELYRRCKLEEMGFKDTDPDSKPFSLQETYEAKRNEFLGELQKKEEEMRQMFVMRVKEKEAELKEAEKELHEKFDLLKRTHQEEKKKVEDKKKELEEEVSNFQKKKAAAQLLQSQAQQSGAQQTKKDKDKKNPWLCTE
UniProt Q8BXR9: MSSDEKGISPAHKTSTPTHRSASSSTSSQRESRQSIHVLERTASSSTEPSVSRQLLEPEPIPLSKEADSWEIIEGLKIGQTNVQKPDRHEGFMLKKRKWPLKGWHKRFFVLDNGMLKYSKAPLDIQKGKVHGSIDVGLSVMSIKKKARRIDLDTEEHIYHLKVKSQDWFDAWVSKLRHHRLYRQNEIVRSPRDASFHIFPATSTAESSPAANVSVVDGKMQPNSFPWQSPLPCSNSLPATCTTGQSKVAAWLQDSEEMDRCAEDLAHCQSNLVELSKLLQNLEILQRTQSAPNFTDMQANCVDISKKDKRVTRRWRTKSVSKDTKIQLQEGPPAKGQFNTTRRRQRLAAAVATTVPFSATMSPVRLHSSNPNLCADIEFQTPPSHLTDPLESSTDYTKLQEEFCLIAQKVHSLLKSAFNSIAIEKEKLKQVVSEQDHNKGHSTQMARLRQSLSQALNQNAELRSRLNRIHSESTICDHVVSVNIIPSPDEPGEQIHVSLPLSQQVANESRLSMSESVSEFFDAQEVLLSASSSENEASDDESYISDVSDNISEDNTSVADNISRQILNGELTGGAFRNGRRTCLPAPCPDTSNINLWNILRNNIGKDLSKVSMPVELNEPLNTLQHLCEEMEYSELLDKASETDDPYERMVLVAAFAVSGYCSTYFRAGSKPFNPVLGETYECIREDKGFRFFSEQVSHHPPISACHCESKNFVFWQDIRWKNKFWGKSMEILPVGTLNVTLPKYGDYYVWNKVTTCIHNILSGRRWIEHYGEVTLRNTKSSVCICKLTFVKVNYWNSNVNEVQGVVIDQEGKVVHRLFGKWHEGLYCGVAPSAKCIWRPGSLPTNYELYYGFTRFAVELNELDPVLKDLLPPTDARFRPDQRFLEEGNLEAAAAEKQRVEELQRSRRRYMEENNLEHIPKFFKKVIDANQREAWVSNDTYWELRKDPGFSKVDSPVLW

compound: CN[C@@H]1C[C@H]2O[C@@](C)([C@@H]1OC)n1c3ccccc3c3c4c(c5c6ccccc6n2c5c31)C(=O)NC4 [staurosporine]; test: log2 fold change of tryptic peptide abundance, ligand vs vehicle (limited proteolysis) (log2 ratio); higher = more trypsin-susceptible (destabilized); conditions: ligand concentration: 20 uM; sample: mouse liver crude lysate; replicate design: treated separately

Target | log2 fold change
UniProt Q8BYZ1 (peptide sequence: VANYCEDNYLQATDKR, peptide start residue: 32) | 0.34
UniProt Q8BVW0 (peptide sequence: LKINEETPLK, peptide start residue: 84) | -0.202
UniProt Q8C3X4 (peptide sequence: VFDIPSEECIKISAK, peptide start residue: 195) | -0.39
UniProt Q8C1B7 (peptide sequence: RNEFLGELQK, peptide start residue: 327) | 0.127
UniProt Q8BXR9 (peptide sequence: PDRHEGFMLK, peptide start residue: 86) | 0.197
